Reference: PubChem BioAssay AID504834 (National Center for Advancing Translational Sciences (NCATS), 2011)
The whole screen tested about 320,000 compounds, of which about 22,000 (6.9%) were called active. This list was built around the results that the source calls inconclusive (neither active nor inactive); the mix of calls is not that of the screen. Calls follow the shape of the dose curve; as a rule, active = well fitted inhibition curve with a large enough effect; inconclusive = small, poorly fitted or top-dose-only effect, or another doubt; inactive = no such curve, though single readings can be large or run the other way. A potency beside an inconclusive call is a rough fit, not a confirmed value.

Experiment: Primary qHTS for delayed death inhibitors of the malarial parasite plastid, 96 hour incubation
Conditions: P. falciparum luciferase reporter growth; series mostly up to 28.7 µM; activity change, negative = inhibition: at the top concentration
How it was run: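 P. falciparum expressing integrated firefly luciferase, in erythrocytes at 2% hematocrit, 0.05% parasitemia, incubated with compounds 96 h at 37 C, 5% CO2. Growth inhibition read as loss of luminescence; two-generation exposure targets delayed-death apicoplast inhibitors.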
% is scaled to controls: 0 for no effect and ±100 for the full control effect; potency is read from the fitted curve at half-maximal effect.

Row | SMILES | Potency | activity change, negative = inhibition
1 | COc1ccc(Cn2cc(C(=O)c3ccccc3)c(=O)c3cc(OC)ccc32)cc1 | inconclusive: 20.8 µM [inhibitor, single point] | –
2 | CN(Cc1ccccc1)C(=C(Cl)Cl)/C(=C1/NCCN1C)[N+](=O)[O-] | – | inactive: 5.71%
3 | O=C(NC1CCCCC1)C1CCCN(S(=O)(=O)c2cccc3cccnc23)C1 (stereo not drawn) | inconclusive: 1.04 µM [inhibitor, partial curve, poor fit] | –
4 | CCN(CC)CCCN1C(=O)C(O)=C(C(=O)c2ccc(C)o2)C1c1ccc(C)o1 (stereo not drawn) | – | inactive: -16.2%
5 | O=C1C=C(N2CCOCC2)c2ccccc2C1=O | – | inactive: 19.3%
6 | Cc1ccc(C(=O)NNC2=Nc3cccc4cccc2c34)cc1 | inconclusive: 9.28 µM [inhibitor, partial curve, poor fit] | –
7 | CC(C)(C)NCC(O)Cn1cc(C=O)c2ccccc21 (stereo not drawn) | inconclusive: 16.5 µM [inhibitor, single point] | –
8 | O=C(CSc1ccc(-c2ccccn2)nn1)c1ccccc1 | – | inactive: 0%
9 | CSc1cccc(NC(=O)CCC(=O)O)c1 | – | inactive: 17.8%
10 | C/C(=N\O)C(C)(C)Nc1ccccc1F | – | inactive: 15%
11 | Cc1cc(C)cc(OCC(O)CN2CCN(C(=O)c3ccco3)CC2)c1 (stereo not drawn) | – | inactive: -11.1%
12 | CCOc1cccc(/C=C/c2ccc3cccc(O)c3n2)c1O | active: 8.28 µM | –
13 | O=C(COC(=O)C1(c2ccc(Cl)cc2)CCCC1)NC1CCS(=O)(=O)C1 (stereo not drawn) | inconclusive: 0.0928 µM [inhibitor, full curve, poor fit] | –
14 | O=C(CCCN1C(=O)NC2(CCCC2)C1=O)N1CCN(S(=O)(=O)c2ccccc2)CC1 | inconclusive: 10.4 µM [inhibitor, single point] | –
15 | O=C(C1Cc2ccccc2CN1C(=O)c1ccccc1)N1CCN(c2ccccc2)CC1 (stereo not drawn) | active: 4.15 µM | –
16 | COC(=O)C1=C(c2cccc(OCc3ccccc3)c2)C[C@@H]2CC[C@H]1N2C(=O)NCCOc1ccccc1 | inconclusive: 5.22 µM [inhibitor, partial curve] | –
17 | COC(=O)C1CCN(C(=O)COC(=O)c2cc([N+](=O)[O-])ccc2N2CCOCC2)CC1 | inconclusive: 18.5 µM [inhibitor, single point] | –
18 | COc1cccc(N2CC(O)Cn3c2nc2c3c(=O)n(CCCc3ccccc3)c(=O)n2C)c1 (stereo not drawn) | inconclusive: 7.38 µM [inhibitor, partial curve, poor fit] | –
19 | COC(=O)c1ccn(CSc2cc(Cl)ccc2Cl)n1 | – | inactive: -36.4%
20 | O=S(=O)(O)c1cc(I)c(O)c2ncccc12 | inconclusive: 7.57 µM [inhibitor, partial curve, poor fit] | –
21 | COc1ccc(OC)c(-c2cnc(OC(C)(C)C)nc2OC(C)(C)C)c1 | active: 10.4 µM | –
22 | Cc1ccccc1C1c2[nH]c3ccccc3c2C[C@H]2C(=O)N(C3CC3)CC(=O)N12 (stereo partly drawn) | active: 3.7 µM | –
23 | COc1ccccc1OCc1n[nH]c(=S)n1Cc1ccccc1 | inconclusive: 16.5 µM [inhibitor, single point] | –
24 | C#Cc1ccc([C@H]2C=C(C(=O)N3CCN(Cc4ccc5c(c4)OCO5)CC3)O[C@@H](OCc3ccc(CO)cc3)C2)cc1 | active: 3.29 µM | –
25 | Cc1cc(C)c(NC(=O)C(C)Sc2nc3ccc(N4C(=O)c5ccccc5C4=O)cc3s2)c(C)c1 (stereo not drawn) | – | inactive: 11.5%
26 | CCCc1nnc(NC(=O)CC(C)c2ccccc2)s1 (stereo not drawn) | – | inactive: -23.4%

Row | SMILES | Potency | activity change, negative = inhibition
27 | CCCCOC(=O)Nc1ccccc1C(N)=O | – | inactive: 26.4%
28 | Cc1occc1C(=O)NNC(=O)c1ccccc1Br | – | inactive: 54.7%
29 | COc1cccc([C@@H]2CC=C(C(=O)O)[C@H](c3ccccc3)N2S(=O)(=O)c2ccc(C)cc2)c1 | inconclusive: 18.5 µM [inhibitor, single point] | –
30 | Cn1c(N/N=C/c2cccs2)nc2c1c(=O)n(Cc1ccccc1)c(=O)n2C | inconclusive: 3.7 µM [inhibitor, single point] | –
31 | CCNCc1cc([N+](=O)[O-])ccc1OCC | – | inactive: -3.93%
32 | Cc1ccc(Cn2c(O)c(N=NC(=S)Nc3ccccc3F)c3ccccc32)cc1 | – | inactive: 11.8%
33 | CCOc1ccccc1NC(=O)NCCCCc1ccccc1 | inconclusive: 18.5 µM [inhibitor, single point] | –
34 | CC1=NCCN1CCNC(=O)Nc1ccc(F)cc1 | active: 0.415 µM | –
35 | Nc1nc(CSCCO)nc(Nc2ccccc2)n1 | – | inactive: 125%
36 | COC(=O)Cn1cnc2c(nnn2-c2ccc(OC)cc2)c1=O | inconclusive: 18.5 µM [inhibitor, single point] | –
37 | O=C(NCCCN1CCCC1=O)c1cccc(S(=O)(=O)N2CCCCC2)c1 | inconclusive: 9.28 µM [inhibitor, partial curve, poor fit] | –
38 | CC(/C=C/c1ccco1)=N\NC(=O)c1cc(Cl)ccc1O | – | inactive: 2.57%
39 | COc1ccc(CNC(=O)CN(C(=O)c2csnn2)c2cccc3ccccc23)cc1 | inconclusive: 10.4 µM [inhibitor, partial curve, poor fit] | –
40 | CCOC(=O)c1ccc(NC(=O)c2cccc(S(=O)(=O)N3CCN(C(C)=O)CC3)c2)cc1 | active: 9.28 µM | –
41 | CN(CC1CCOCC1)C(=O)c1ccc2nc(Cc3cccc(Cl)c3)oc2c1 | inconclusive: 20.8 µM [inhibitor, partial curve, poor fit] | –
42 | Cc1c(S(=O)(=O)Nc2ccc(Br)cc2)c(=O)n(C)c(=O)n1C | inconclusive: 18.5 µM [inhibitor, single point] | –
43 | Cc1ccc(N/C=C2\C(=O)C3(C)CCC2C3(C)C)cc1C (stereo not drawn) | inconclusive: 0.0738 µM [inhibitor, full curve, poor fit] | –
44 | C=CC[n+]1c(-c2ccc(C)cc2)csc1Nc1ccc(NC(C)=O)cc1 | – | inactive: 0%
45 | COc1ccccc1C1CCN(Cc2ccccc2)CC1 | – | inactive: 19.7%
46 | Cc1ccc(S(=O)(=O)N2CCN(c3ccc(C(=O)N4CCOCC4)cc3[N+](=O)[O-])CC2)cc1 | active: 10.4 µM | –
47 | Cc1ccc(S(=O)(=O)N2C(=O)CCC2C(=O)O/N=C(\N)c2ccc([N+](=O)[O-])cc2)cc1 (stereo not drawn) | – | inactive: -1.61%
48 | O=C(O)c1cccc(Cn2c(Cl)c(/C=N/NC(=O)c3cccc(O)c3)sc2=O)c1 | inconclusive: 18.5 µM [inhibitor, single point] | –
49 | CC(c1ccccc1)N1CCC(CNC(=S)Nc2cccc(Cl)c2)C1 (stereo not drawn) | inconclusive: 1.47 µM [inhibitor, full curve, poor fit] | –
50 | O=C(CSc1nnc(Cc2ccccc2)n1Cc1ccco1)NC1CCCC1 | inconclusive: 18.5 µM [inhibitor, single point] | –
51 | CCC(=O)Nc1ccc(S(=O)(=O)N2CCOCC2)cc1 | – | inactive: 20.8%
52 | Cc1ccc(NC(=S)Nc2ccc(F)cc2)c(C)c1 | – | inactive: 123%

An excerpt of these results, comma-delimited:
Row,SMILES,Potency,"activity change, negative = inhibition"
29,COc1cccc([C@@H]2CC=C(C(=O)O)[C@H](c3ccccc3)N2S(=O)(=O)c2ccc(C)cc2)c1,"inconclusive: 18.5 µM [inhibitor, single point]",–
30,Cn1c(N/N=C/c2cccs2)nc2c1c(=O)n(Cc1ccccc1)c(=O)n2C,"inconclusive: 3.7 µM [inhibitor, single point]",–
31,CCNCc1cc([N+](=O)[O-])ccc1OCC,–,inactive: -3.93%
32,Cc1ccc(Cn2c(O)c(N=NC(=S)Nc3ccccc3F)c3ccccc32)cc1,–,inactive: 11.8%
33,CCOc1ccccc1NC(=O)NCCCCc1ccccc1,"inconclusive: 18.5 µM [inhibitor, single point]",–
34,CC1=NCCN1CCNC(=O)Nc1ccc(F)cc1,active: 0.415 µM,–
35,Nc1nc(CSCCO)nc(Nc2ccccc2)n1,–,inactive: 125%
36,COC(=O)Cn1cnc2c(nnn2-c2ccc(OC)cc2)c1=O,"inconclusive: 18.5 µM [inhibitor, single point]",–
37,O=C(NCCCN1CCCC1=O)c1cccc(S(=O)(=O)N2CCCCC2)c1,"inconclusive: 9.28 µM [inhibitor, partial curve, poor fit]",–
38,CC(/C=C/c1ccco1)=N\NC(=O)c1cc(Cl)ccc1O,–,inactive: 2.57%
39,COc1ccc(CNC(=O)CN(C(=O)c2csnn2)c2cccc3ccccc23)cc1,"inconclusive: 10.4 µM [inhibitor, partial curve, poor fit]",–
40,CCOC(=O)c1ccc(NC(=O)c2cccc(S(=O)(=O)N3CCN(C(C)=O)CC3)c2)cc1,active: 9.28 µM,–
41,CN(CC1CCOCC1)C(=O)c1ccc2nc(Cc3cccc(Cl)c3)oc2c1,"inconclusive: 20.8 µM [inhibitor, partial curve, poor fit]",–
42,Cc1c(S(=O)(=O)Nc2ccc(Br)cc2)c(=O)n(C)c(=O)n1C,"inconclusive: 18.5 µM [inhibitor, single point]",–
43,Cc1ccc(N/C=C2\C(=O)C3(C)CCC2C3(C)C)cc1C (stereo not drawn),"inconclusive: 0.0738 µM [inhibitor, full curve, poor fit]",–
44,C=CC[n+]1c(-c2ccc(C)cc2)csc1Nc1ccc(NC(C)=O)cc1,–,inactive: 0%
45,COc1ccccc1C1CCN(Cc2ccccc2)CC1,–,inactive: 19.7%
46,Cc1ccc(S(=O)(=O)N2CCN(c3ccc(C(=O)N4CCOCC4)cc3[N+](=O)[O-])CC2)cc1,active: 10.4 µM,–
47,Cc1ccc(S(=O)(=O)N2C(=O)CCC2C(=O)O/N=C(\N)c2ccc([N+](=O)[O-])cc2)cc1 (stereo not drawn),–,inactive: -1.61%
48,O=C(O)c1cccc(Cn2c(Cl)c(/C=N/NC(=O)c3cccc(O)c3)sc2=O)c1,"inconclusive: 18.5 µM [inhibitor, single point]",–
49,CC(c1ccccc1)N1CCC(CNC(=S)Nc2cccc(Cl)c2)C1 (stereo not drawn),"inconclusive: 1.47 µM [inhibitor, full curve, poor fit]",–
50,O=C(CSc1nnc(Cc2ccccc2)n1Cc1ccco1)NC1CCCC1,"inconclusive: 18.5 µM [inhibitor, single point]",–
51,CCC(=O)Nc1ccc(S(=O)(=O)N2CCOCC2)cc1,–,inactive: 20.8%

(listing goes on)

Row | SMILES | Potency | activity change, negative = inhibition
53 | Cc1nn(Cc2ccc(C(=O)NN)o2)c(C)c1Cl | inconclusive: 2.94 µM [inhibitor, partial curve, poor fit] | –
54 | COC(=O)C1=C(C)OC(N)=C(C#N)C1c1cc2cc(C)ccc2nc1Cl (stereo not drawn) | inconclusive: 0.0415 µM [inhibitor, full curve, poor fit] | –
55 | Cc1ccccc1C(=O)NNC(=O)c1ccoc1C | – | inactive: 32.8%
56 | NC(c1ccccc1)c1cccnc1 (stereo not drawn) | – | inactive: -28.1%
57 | O=C1NC2(C=Cc3c(ccc4ccccc34)O2)Oc2ccccc21 (stereo not drawn) | – | inactive: 2.64%
58 | Cc1ccccc1C(=O)NNC(=O)C1CCN(c2ncccn2)CC1 | – | inactive: -10.2%
59 | Cc1[nH]c2c(C)cccc2c1CCNC(=O)c1ccc2c(c1[N+](=O)[O-])C(=O)c1ccccc1C2=O | inconclusive: 18.5 µM [inhibitor, single point] | –
60 | CN1CCN(C(=S)NC(=O)/C=C/c2cccs2)CC1 | – | inactive: 2.61%
61 | CCN(CC)C(=O)c1nc[nH]c1C(=O)N(C)Cc1ccccc1 | – | inactive: 0%
62 | COc1ccccc1N1CCN(Cc2ccc(F)cc2)CC1 | inconclusive: 10.4 µM [inhibitor, partial curve, poor fit] | –
63 | O=C(COc1ccc([N+](=O)[O-])cc1)Nc1ccncc1 | inconclusive: 14.7 µM [inhibitor, partial curve, poor fit] | –
64 | CC(=O)C1=C(O)C(=O)N(c2ccc(C)cc2)C1c1ccccn1 (stereo not drawn) | – | inactive: 7.97%
65 | Cc1occc1C(=O)N/N=C/c1ccc(-c2ccccc2)cc1 | – | inactive: 74.3%
66 | Cn1c(=O)c(C(=O)NNC(=O)c2ccccc2F)c(O)c2ccccc21 | inconclusive: 11.7 µM [inhibitor, single point] | –
67 | O=C(OCc1cc(=O)n2ccsc2n1)c1ccc(O)cc1O | – | inactive: 191%
68 | CCCCn1ccc(O)c(Cc2ccc(F)cc2)c1=O | – | inactive: 4.86%
69 | O=C(/C=C/Nc1ccc(Br)cc1F)c1ccco1 | – | inactive: 49.4%
70 | COC(=O)c1ccc(NC(=O)Cn2nc(C)c3ccccc3c2=O)cc1 | inconclusive: 14.7 µM [inhibitor, single point] | –
71 | CCOC(=O)c1[nH]c2ccc(Cl)cc2c1NC(=O)/C=C/c1ccc2c(c1)OCO2 | – | inactive: 9.42%
72 | COc1cc2cc(CN(Cc3cccnc3)C(=O)Nc3ccccc3)c(=O)[nH]c2cc1OC | – | inactive: 45.6%
73 | Cc1cc(C(=O)N/N=C/c2cc([N+](=O)[O-])cc(C)c2O)n[nH]1 | inconclusive: 18.5 µM [inhibitor, single point] | –
74 | O=c1c(Cc2ccc(F)cc2)c(O)ccn1CCc1cnc[nH]1 | inconclusive: 7.38 µM [inhibitor, partial curve, poor fit] | –
75 | O=C(Nc1ccncc1)c1ccc(N2CCCC2=O)cc1 | – | inactive: 13%
76 | COc1ccc(CC(=O)NNC(=O)COc2ccc(Cl)cc2C)cc1S(=O)(=O)N1CCOCC1 | – | inactive: -10.8%
77 | Cn1ncc2c1ncn1nc(COc3ccc4ccccc4c3)nc21 | inconclusive: 13.1 µM [inhibitor, single point] | –
78 | COCCSc1ccccc1C(=O)N1CCc2ccccc21 | inconclusive: 4.65 µM [inhibitor, partial curve] | –
